Assay results: article PMC8882114
Results are given in words; binding and its absence hold for the method and conditions named. In cells and extracts the contact can be indirect. Some entries that bind do so weakly or less than the wild type. For some of these results: Where a sequence is shown, tags or fusion partners need not be part of it. Values belong to the molecule of their own block, whether it stands above or below them.

Protein sequences, listed by entry. Tags and fused reporters are not part of them. Residues count along the entry.
UniProt P11021, residues 19-654: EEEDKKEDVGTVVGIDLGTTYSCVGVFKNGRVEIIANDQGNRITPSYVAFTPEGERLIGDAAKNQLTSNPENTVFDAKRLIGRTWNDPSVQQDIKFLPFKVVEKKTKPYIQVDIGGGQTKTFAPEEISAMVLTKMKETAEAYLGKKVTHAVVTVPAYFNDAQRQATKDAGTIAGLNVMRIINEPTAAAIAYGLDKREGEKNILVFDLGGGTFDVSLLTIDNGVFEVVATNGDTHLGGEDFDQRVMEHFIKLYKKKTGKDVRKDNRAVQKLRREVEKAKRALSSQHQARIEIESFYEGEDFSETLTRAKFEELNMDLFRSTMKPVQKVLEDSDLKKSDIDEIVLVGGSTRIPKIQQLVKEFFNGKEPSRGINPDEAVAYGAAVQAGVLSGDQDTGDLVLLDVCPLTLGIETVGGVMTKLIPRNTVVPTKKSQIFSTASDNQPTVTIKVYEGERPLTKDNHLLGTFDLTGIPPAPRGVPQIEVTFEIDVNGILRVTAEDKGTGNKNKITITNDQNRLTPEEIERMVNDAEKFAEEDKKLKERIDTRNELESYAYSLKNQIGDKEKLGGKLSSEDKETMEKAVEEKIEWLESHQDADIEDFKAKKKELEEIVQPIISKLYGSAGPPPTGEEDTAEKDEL

Tests used:
[1] = target: T1, Three prime repair exonuclease 1 (TREX1), endogenous (human (endogenous in 293 T, SH-SY5Y, A431)) (UniProt Q9NSU2); assay: co-IP; membrane fractions containing ER
T1 sequence: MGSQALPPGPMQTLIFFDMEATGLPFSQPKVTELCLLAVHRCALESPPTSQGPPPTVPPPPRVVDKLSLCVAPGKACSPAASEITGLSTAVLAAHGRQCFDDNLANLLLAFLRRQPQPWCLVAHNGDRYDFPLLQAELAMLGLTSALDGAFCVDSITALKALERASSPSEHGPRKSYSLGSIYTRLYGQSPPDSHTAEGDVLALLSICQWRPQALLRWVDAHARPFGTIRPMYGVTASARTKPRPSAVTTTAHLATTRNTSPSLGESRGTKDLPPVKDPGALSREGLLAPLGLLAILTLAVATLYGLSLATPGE

[2] = target: T1, Three prime repair exonuclease 1 (TREX1), endogenous (human (endogenous in 293 T, SH-SY5Y, A431)); assay: co-IP; IP of TREX1-BiP/GRP78 from cells treated with the TAT-conjugated TREX1 peptide (5 μM)
[3] = target: T2, FLAG-tagged full-length (FL) TREX1 (p3XFLAG-CMV-7.1) (human) (UniProt Q9NSU2); assay: co-IP; FLAG-tagged full-length TREX1 and deletion constructs D1-D4 (p3XFLAG-CMV-7.1) assessed by IP
T2 sequence: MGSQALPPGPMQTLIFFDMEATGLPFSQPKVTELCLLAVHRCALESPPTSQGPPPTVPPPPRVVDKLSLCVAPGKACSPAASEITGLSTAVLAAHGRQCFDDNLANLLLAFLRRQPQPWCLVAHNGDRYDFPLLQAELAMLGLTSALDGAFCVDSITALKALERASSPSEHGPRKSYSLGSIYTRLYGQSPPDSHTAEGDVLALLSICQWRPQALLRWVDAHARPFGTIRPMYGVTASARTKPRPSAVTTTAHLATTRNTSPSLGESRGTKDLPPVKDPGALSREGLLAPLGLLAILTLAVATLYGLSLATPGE

[4] = target: T3, GFP-tagged TREX1 (wild type, pEGFP-N3) (human) (UniProt Q9NSU2); assay: proximity ligation; Duolink in situ red kit; fixed SH-SY5Y cells transfected with GFP-tagged TREX1 WT or V91M; primary antibodies against GFP and BiP/GRP78
T3 sequence: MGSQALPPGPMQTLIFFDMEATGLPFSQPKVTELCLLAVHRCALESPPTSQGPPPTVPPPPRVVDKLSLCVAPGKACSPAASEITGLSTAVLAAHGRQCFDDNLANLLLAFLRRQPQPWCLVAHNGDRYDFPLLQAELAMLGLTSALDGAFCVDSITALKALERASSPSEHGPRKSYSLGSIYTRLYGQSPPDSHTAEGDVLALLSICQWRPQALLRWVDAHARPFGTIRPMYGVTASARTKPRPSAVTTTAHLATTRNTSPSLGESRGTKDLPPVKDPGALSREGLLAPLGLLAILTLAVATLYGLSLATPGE

[5] = target: T4, GFP-tagged TREX1 V91M (HSP patient-specific mutant, pEGFP-N3) (human) (UniProt Q9NSU2); assay: as above
T4 sequence: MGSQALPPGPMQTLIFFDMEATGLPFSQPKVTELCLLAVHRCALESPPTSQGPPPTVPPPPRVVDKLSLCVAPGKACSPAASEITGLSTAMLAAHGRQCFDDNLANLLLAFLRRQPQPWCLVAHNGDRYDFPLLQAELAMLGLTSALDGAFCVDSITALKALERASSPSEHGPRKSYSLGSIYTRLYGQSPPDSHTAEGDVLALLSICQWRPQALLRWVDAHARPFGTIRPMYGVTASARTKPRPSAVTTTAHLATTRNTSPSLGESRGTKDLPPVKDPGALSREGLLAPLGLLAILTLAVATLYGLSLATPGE

[6] = target: T3, GFP-tagged TREX1 (wild type, pEGFP-N3) (human); assay: co-IP; 293 T cells transfected with GFP-tagged TREX1 plasmids (wild type in increasing dose; V91M); IP with anti-GFP antibody, blot for endogenous BiP/GRP78
[7] = target: T4, GFP-tagged TREX1 V91M (HSP patient-specific mutant, pEGFP-N3) (human); assay: as above
[8] = target: T1, Three prime repair exonuclease 1 (TREX1), endogenous (human (endogenous in 293 T, SH-SY5Y, A431)); assay: co-IP; endogenous proteins from 293 T, SH-SY5Y and A431 lysates; Pierce IP lysis buffer, indicated antibodies and protein G-agarose overnight at 4 °C, washed with TBS, western blot
[9] = target: BiP/GRP78, endogenous (human (endogenous in 293 T, SH-SY5Y, A431)) (UniProt P11021); assay: co-IP; competition: cells treated with the TAT-conjugated TREX1 peptide (5 μM), loss of the TREX1-BiP/GRP78 co-precipitate read out; only the binder purified
[10] = target: GST-tagged BiP/GRP78 (UniProt P11021); assay: pull-down; 293 T cells cotransfected with GST-tagged BiP/GRP78 and FLAG-tagged TREX1 plasmids; GST precipitated from cell lysates, western blot

binding [1]: binds
binding [2]: binds
binding [3]: binds
binding [4]: binds
binding [5]: binds weakly
binding [6]: binds
binding [7]: binds weakly
binding [8]: binds
Molecule: BiP/GRP78, endogenous (from UniProt P11021 19-654)

binding [9]: binds
B1: TAT-conjugated TREX1 mimic peptide (amino acids 80-99) (peptide, UniProt Q9NSU2-3 80-99)
peptide: AASEITGLSTAVLAAHGRQC

binding [10]: binds
B2: FLAG-tagged full-length (FL) TREX1 (p3XFLAG-CMV-7.1) (protein, UniProt Q9NSU2-3 1-314)
chain: MGSQALPPGPMQTLIFFDMEATGLPFSQPKVTELCLLAVHRCALESPPTSQGPPPTVPPPPRVVDKLSLCVAPGKACSPAASEITGLSTAVLAAHGRQCFDDNLANLLLAFLRRQPQPWCLVAHNGDRYDFPLLQAELAMLGLTSALDGAFCVDSITALKALERASSPSEHGPRKSYSLGSIYTRLYGQSPPDSHTAEGDVLALLSICQWRPQALLRWVDAHARPFGTIRPMYGVTASARTKPRPSAVTTTAHLATTRNTSPSLGESRGTKDLPPVKDPGALSREGLLAPLGLLAILTLAVATLYGLSLATPGE
